PubChem BioAssay AID1259308 – NCATS, 2017

Assay: 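Genes whose loss raises luciferase production in HEK293 cells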 (primary screen)
System: human HEK293 embryonic kidney cells stably expressing firefly luciferase (HEK-CMV-Luc2-Hygro)
Reagent: single siRNA against human genes, 0.8 pmol siRNA per well
Duration: 72 h
Read-out: 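Luciferase light (ONE-Glo) measured on one replicate plate set and viability (CellTiter-Glo) on the other, scaled to a negative control siRNA, with robust z-scores and luciferase per cell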
Scale: total luciferase, z-score: higher = more reporter protein produced
Hit rule: 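Active when the median/MAD z-score for overall luciferase is greater than 3; a gene was taken forward for validation with new siRNAs if at least two of its three siRNAs passed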
Meaning of the calls: active = raised luciferase; inactive = no rise
This is one part, drawn at random, of about 59,000 reagents tested. About 1,510 of them (2.6%) count as active. 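Calls use total luciferase alone and ignore viability, so some active siRNAs may act by altering cell number.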 Further read-outs or replicates are left out here.

With TEX11 (testis expressed 11) [SID160744908], what does the deposit list?
total luciferase, z-score: -0.689; activity call: inactive

With TEX11 (testis expressed 11) [SID160744909], what was measured?
total luciferase, z-score: -0.527; activity call: inactive

What did the screen give for TEX11 (testis expressed 11) [SID160744910]?
total luciferase, z-score: -0.806; activity call: inactive

With PROX2 (prospero homeobox 2) [SID160762965], how do the results read?
total luciferase, z-score: -0.263; activity call: inactive

How did the screen score PROX2 (prospero homeobox 2) [SID160762966]?
total luciferase, z-score: -0.78; activity call: inactive

With PROX2 (prospero homeobox 2) [SID160762967], what was measured?
total luciferase, z-score: 2.18; activity call: inactive

With DPM2 (dolichyl-phosphate mannosyltransferase subunit 2, regulatory) [SID160720883], what does the deposit list?
total luciferase, z-score: 0.193; activity call: inactive

How did the screen score DPM2 (dolichyl-phosphate mannosyltransferase subunit 2, regulatory) [SID160720884]?
total luciferase, z-score: -0.725; activity call: inactive

How did the screen score DPM2 (dolichyl-phosphate mannosyltransferase subunit 2, regulatory) [SID160720885]?
total luciferase, z-score: 0.793; activity call: inactive

With PHKA1 (phosphorylase kinase regulatory subunit alpha 1) [SID160714251], what does the deposit list?
total luciferase, z-score: 1.15; activity call: inactive

Which result is listed for PHKA1 (phosphorylase kinase regulatory subunit alpha 1) [SID160714253]?
total luciferase, z-score: -0.854; activity call: inactive

What is on record for PHKA1 (phosphorylase kinase regulatory subunit alpha 1) [SID160714254]?
total luciferase, z-score: 0.349; activity call: inactive

With UBASH3B (ubiquitin associated and SH3 domain containing B) [SID160753041], what was measured?
total luciferase, z-score: 1.76; activity call: inactive

With UBASH3B (ubiquitin associated and SH3 domain containing B) [SID160753042], what does the deposit list?
total luciferase, z-score: 2.32; activity call: inactive

With UBASH3B (ubiquitin associated and SH3 domain containing B) [SID160753043], how do the results read?
total luciferase, z-score: 0.0461; activity call: inactive

Which result is listed for HES5 (hes family bHLH transcription factor 5) [SID160731178]?
total luciferase, z-score: 1.17; activity call: inactive

What is on record for HES5 (hes family bHLH transcription factor 5) [SID160765919]?
total luciferase, z-score: -0.382; activity call: inactive

What did the screen give for HES5 (hes family bHLH transcription factor 5) [SID160765920]?
total luciferase, z-score: 0.548; activity call: inactive

Sorted by “total luciferase, z-score” (low to high): 2 of the entries above
UBASH3B (ubiquitin associated and SH3 domain containing B) [SID160753041] | total luciferase, z-score: 1.76; activity call: inactive
UBASH3B (ubiquitin associated and SH3 domain containing B) [SID160753042] | total luciferase, z-score: 2.32; activity call: inactive

The list goes on.
With CS (citrate synthase) [SID160748896], what does the deposit list?
total luciferase, z-score: 0.482; activity call: inactive

For CS (citrate synthase) [SID160748907], what was measured?
total luciferase, z-score: -0.618; activity call: inactive

What is on record for CS (citrate synthase) [SID160748918]?
total luciferase, z-score: 0.902; activity call: inactive

With UNC5B-AS1 (UNC5B antisense RNA 1) [SID160734443], what does the deposit list?
total luciferase, z-score: -0.431; activity call: inactive

What did the screen give for UNC5B-AS1 (UNC5B antisense RNA 1) [SID160734444]?
total luciferase, z-score: 0.978; activity call: inactive

With UNC5B-AS1 (UNC5B antisense RNA 1) [SID160772309], what was measured?
total luciferase, z-score: 0.226; activity call: inactive

For SLC43A3 [SID160731030], how do the results read?
total luciferase, z-score: 1.49; activity call: inactive

What did the screen give for SLC43A3 [SID160738967]?
total luciferase, z-score: 0.242; activity call: inactive

With SLC43A3 [SID160738968], how do the results read?
total luciferase, z-score: -0.803; activity call: inactive

How did the screen score ALG1L6P (ALG1 like 6, pseudogene) [SID160725085]?
total luciferase, z-score: -1.23; activity call: inactive

For ALG1L6P (ALG1 like 6, pseudogene) [SID160764317], how do the results read?
total luciferase, z-score: -1.49; activity call: inactive

With ALG1L6P (ALG1 like 6, pseudogene) [SID160764318], what was measured?
total luciferase, z-score: -1.5; activity call: inactive

Which result is listed for ACSM6 (acyl-CoA synthetase medium chain family member 6) [SID160757989]?
total luciferase, z-score: 0.958; activity call: inactive

How did the screen score ACSM6 (acyl-CoA synthetase medium chain family member 6) [SID160757990]?
total luciferase, z-score: 0.71; activity call: inactive

With ACSM6 (acyl-CoA synthetase medium chain family member 6) [SID160757991], what was measured?
total luciferase, z-score: -0.0785; activity call: inactive
